The values below come from article PMC5016662.

No constants are given. Whether binding was seen depends on the method and setting.

The test has as its target T1, human cathepsin G (human) (UniProt P08311).
T1 sequence: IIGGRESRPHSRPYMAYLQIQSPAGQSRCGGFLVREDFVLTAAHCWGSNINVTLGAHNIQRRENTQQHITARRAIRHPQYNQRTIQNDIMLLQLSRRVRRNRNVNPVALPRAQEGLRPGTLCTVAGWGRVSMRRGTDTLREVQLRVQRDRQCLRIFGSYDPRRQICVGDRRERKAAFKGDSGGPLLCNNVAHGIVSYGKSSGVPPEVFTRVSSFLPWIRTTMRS
Description: enzyme inhibition screen (fluorogenic substrate); 300 nM inhibitor incubated with each protease for 15 min at 37 °C before the fluorogenic substrate was added; buffer and substrate for each protease as in Table 4; in triplicate; both purified.

As to “recombinant Fasciola hepatica Kunitz-type protease inhibitor FhKT1”, the binding entry was “no binding (tested: 300 nM)”.
